PubChem BioAssay AID1053208 | Peter MacCallum Cancer Centre | 2014
Shown is an unselected part of about 17,000 reagents tested. Over the whole deposit, 788 (4.7%) are marked active. 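Calls rest on z-score classes alone; an extra cut-off of viability at most 70% of control was not applied to them.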 A number with no mark means an inactive call. Further read-outs or replicates are left out here. No sequences are given here.

Assay: 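Find knock-downs that sensitise mouse osteosarcoma cells to doxorubicin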 (primary screen)
Cell system: mouse osteosarcoma cells, early-passage culture from an engineered mouse model of fibroblastic bone tumour
Reagent: siRNA pool against mouse genes, 40 nM
Timing: about 120 h (48 h before drug, then 72 h with drug)
Conditions: doxorubicin 100 nM for 72 h, roughly 30-40% inhibitory dose
Detection: 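Luminescent ATP signal taken as viability with or without 100 nM doxorubicin for 72 h; mean of two wells set against non-targeting siRNA and turned into robust z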
Reading the numbers: viability z-score with doxorubicin: higher = more viable cells under doxorubicin; viability z-score without drug: higher = more viable cells with knock-down alone
Call rule: 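a pool counts as active when its viability z-score with doxorubicin is -2 or below and its z-score without drug lies between -2 and 2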

What is on record for Slc35b1 [SID152313008]?
combined z-score class: no change with or without drug; viability z-score with doxorubicin: -1.24; viability z-score without drug: -0.51

What did the screen give for Zfp710 [SID152313471]?
combined z-score class: no change with or without drug; viability z-score with doxorubicin: -0.56; viability z-score without drug: 0.51

Which result is listed for Far1 [SID152321645]?
combined z-score class: no change with or without drug; viability z-score with doxorubicin: 0.22; viability z-score without drug: 0.17

For Nt5c [SID152292569], how do the results read?
combined z-score class: no change with or without drug; viability z-score with doxorubicin: 0.67; viability z-score without drug: -0.84

What did the screen give for Actbl2 [SID152260975]?
combined z-score class: no change with or without drug; viability z-score with doxorubicin: 0.79; viability z-score without drug: 1.18

How did the screen score Apbb2 [SID152287658]?
combined z-score class: no change with or without drug; viability z-score with doxorubicin: 0.22; viability z-score without drug: -0.17

Reformatted: 2 of the entries above.
{"gene knocked down": "Zfp710", "PubChem SID": "SID152313471", "combined z-score class": "no change with or without drug", "viability z-score with doxorubicin": -0.56, "viability z-score without drug": 0.51}
{"gene knocked down": "Far1", "PubChem SID": "SID152321645", "combined z-score class": "no change with or without drug", "viability z-score with doxorubicin": 0.22, "viability z-score without drug": 0.17}

Next reagents follow:
With Mtfr1l [SID152342980], what does the deposit list?
combined z-score class: no change with or without drug; viability z-score with doxorubicin: 1.24; viability z-score without drug: 1.52

With Anxa5 [SID152308167], what was measured?
combined z-score class: no change with or without drug; viability z-score with doxorubicin: -1.24; viability z-score without drug: 0.84

For Ist1 [SID152262608], what does the deposit list?
combined z-score class: low cell count with doxorubicin only (active); viability z-score with doxorubicin: -3.48; viability z-score without drug: 0.84

For Hscb [SID152315280], what was measured?
combined z-score class: no change with or without drug; viability z-score with doxorubicin: -0.9; viability z-score without drug: 1.18

For Polr3b [SID152323011], how do the results read?
combined z-score class: no change with or without drug; viability z-score with doxorubicin: -1.35; viability z-score without drug: -0.51

What is on record for Reln [SID152284603]?
combined z-score class: no change with or without drug; viability z-score with doxorubicin: 0.45; viability z-score without drug: -0.17
